Source: article PMC3514159
Results are given in words; binding and its absence hold for the method and conditions named. For part of these data: Binding seen in cells or lysates may run through a third protein. Some results given as binding are weak or reduced against the parent protein; the word gives no strength.

The chains behind the UniProt entries cited, without tags or fusion partners.
UniProt P09022: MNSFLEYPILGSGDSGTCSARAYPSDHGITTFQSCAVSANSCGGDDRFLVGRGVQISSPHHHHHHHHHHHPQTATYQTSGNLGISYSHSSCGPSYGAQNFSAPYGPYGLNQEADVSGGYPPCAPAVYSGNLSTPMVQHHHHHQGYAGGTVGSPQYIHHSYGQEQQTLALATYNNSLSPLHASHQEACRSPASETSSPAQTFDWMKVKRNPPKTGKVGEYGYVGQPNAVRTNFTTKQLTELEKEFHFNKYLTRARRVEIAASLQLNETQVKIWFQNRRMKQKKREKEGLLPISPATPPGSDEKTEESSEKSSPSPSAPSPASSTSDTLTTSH

B1: keratin associated protein 26-1 (protein, UniProt Q6PEX3 1-210)
chain: MSCPNYCSGNSNSGSLRTSRHIPLTSIDLCPTSVSCGDVLYLPTSSQDHTWVTDNCQETCGEPTSCQPVHCETGNLETSCGSSTAYYVPRPCQGSSFLPASFFSSSCLPVSCRPQRYVSSGCRPLRPLLNSYQPIGDCVPNAYRPQFCLSKSCQPQNLLTSGCQPSSCLAYRPQSLHVVSSSLRPLGPLFSGCQPLTHVFSTCRPSCSGL
B2: family with sequence similarity 108, member A1 (protein, UniProt Q96GS6 1-310)
chain: MNGLSLSELCCLFCCPPCPGRIAAKLAFLPPEATYSLVPEPEPGPGGAGAAPLGTLRASSGAPGRWKLHLTERADFQYSQRELDTIEVFPTKSARGNRVSCMYVRCVPGARYTVLFSHGNAVDLGQMSSFYIGLGSRLHCNIFSYDYSGYGASSGRPSERNLYADIDAAWQALRTRYGISPDSIILYGQSIGTVPTVDLASRYECAAVVLHSPLTSGMRVAFPDTKKTYCFDAFPNIEKVSKITSPVLIIHGTEDEVIDFSHGLALYERCPKAVEPLWVEGAGHNDIELYSQYLERLRRFISQELPSQRA
B3: keratin 81 (protein, UniProt Q14533 1-505)
chain: MTCGSGFGGRAFSCISACGPRPGRCCITAAPYRGISCYRGLTGGFGSHSVCGGFRAGSCGRSFGYRSGGVCGPSPPCITTVSVNESLLTPLNLEIDPNAQCVKQEEKEQIKSLNSRFAAFIDKVRFLEQQNKLLETKLQFYQNRECCQSNLEPLFEGYIETLRREAECVEADSGRLASELNHVQEVLEGYKKKYEEEVSLRATAENEFVALKKDVDCAYLRKSDLEANVEALIQEIDFLRRLYEEEILILQSHISDTSVVVKLDNSRDLNMDCIIAEIKAQYDDIVTRSRAEAESWYRSKCEEMKATVIRHGETLRRTKEEINELNRMIQRLTAEVENAKCQNSKLEAAVAQSEQQGEAALSDARCKLAELEGALQKAKQDMACLIREYQEVMNSKLGLDIEIATYRRLLEGEEQRLCEGIGAVNVCVSSSRGGVVCGDLCVSGSRPVTGSVCSAPCNGNVAVSTGLCAPCGQLNTTCGGGSCGVGSCGISSLGVGSCGSSCRKC
B4: keratin associated protein 5-9 (protein, UniProt P26371 1-169)
chain: MGCCGCSGGCGSSCGGCDSSCGSCGSGCRGCGPSCCAPVYCCKPVCCCVPACSCSSCGKRGCGSCGGSKGGCGSCGCSQCSCCKPCCCSSGCGSSCCQCSCCKPYCSQCSCCKPCCSSSGRGSSCCQSSCCKPCCSSSGCGSSCCQSSCCKPCCSQSRCCVPVCYQCKI
B5: MyoD family inhibitor (protein, UniProt Q99750 1-246)
chain: MYQVSGQRPSGCDAPYGAPSAAPGPAQTLSLLPGLEVVTGSTHPAEAAPEEGSLEEAATPMPQGNGPGIPQGLDSTDLDVPTEAVTCQPQGNPLGCTPLLPNDSGHPSELGGTRRAGNGALGGPKAHRKLQTHPSLASQGSKKSKSSSKSTTSQIPLQAQEDCCVHCILSCLFCEFLTLCNIVLDCATCGSCSSEDSCLCCCCCGSGECADCDLPCDLDCGILDACCESADCLEICMECCGLCFSS
B6: RAB33A (member RAS oncogene family) (protein, UniProt Q14088 1-237)
chain: MAQPILGHGSLQPASAAGLASLELDSSLDQYVQIRIFKIIVIGDSNVGKTCLTFRFCGGTFPDKTEATIGVDFREKTVEIEGEKIKVQVWDTAGQERFRKSMVEHYYRNVHAVVFVYDVTKMTSFTNLKMWIQECNGHAVPPLVPKVLVGNKCDLREQIQVPSNLALKFADAHNMLLFETSAKDPKESQNVESIFMCLACRLKAQKSLLYRDAERQQGKVQKLEFPQEANSKTSCPC
B7: zinc finger, ZZ-type containing 3 (protein, UniProt Q8IYH5 1-903)
chain: MAASRSTRVTRSTVGLNGLDESFCGRTLRNRSIAHPEEISSNSQVRSRSPKKRPEPVPIQKGNNNGRTTDLKQQSTRESWVSPRKRGLSSSEKDNIERQAIENCERRQTEPVSPVLKRIKRCLRSEAPNSSEEDSPIKSDKESVEQRSTVVDNDADFQGTKRACRCLILDDCEKREIKKVNVSEEGPLNSAVVEEITGYLAVNGVDDSDSAVINCDDCQPDGNTKQNSIGSYVLQEKSVAENGDTDTQTSMFLDSRKEDSYIDHKVPCTDSQVQVKLEDHKIVTACLPVEHVNQLTTEPATGPFSETQSSLRDSEEEVDVVGDSSASKEQCKENTNNELDTSLESMPASGEPEPSPVLDCVSAQMMSLSEPQEHRYTLRTSPRRAAPTRGSPTKNSSPYRENGQFEENNLSPNETNATVSDNVSQSPTNPGEISQNEKGICCDSQNNGSEGVSKPPSEARLNIGHLPSAKESASQHITEEEDDDPDVYYFESDHVALKHNKDYQRLLQTIAVLEAQRSQAVQDLESLGRHQREALKNPIGFVEKLQKKADIGLPYPQRVVQLPEIVWDQYTHSLGNFEREFKNRKRHTRRVKLVFDKVGLPARPKSPLDPKKDGESLSYSMLPLSDGPEGSSSRPQMIRGRLCDDTKPETFNQLWTVEEQKKLEQLLIKYPPEEVESRRWQKIADELGNRTAKQVASRVQKYFIKLTKAGIPVPGRTPNLYIYSKKSSTSRRQHPLNKHLFKPSTFMTSHEPPVYMDEDDDRSCFHSHMNTAVEDASDDESIPIMYRNLPEYKELLQFKKLKKQKLQQMQAESGFVQHVGFKCDNCGIEPIQGVRWHCQDCPPEMSLDFCDSCSDCLHETDIHKEDHQLEPIYRSETFLDRDYCVSQGTSYNYLDPNYFPANR
B8: heat shock transcription factor, Y-linked 1 (protein, UniProt Q96LI6 1-401)
chain: MAHVSSETQDVSPKDELTASEASTRSPLCEHTFPGDSDLRSMIEEHAFQVLSQGSLLESPSYTVCVSEPDKDDDFLSLNFPRKLWKIVESDQFKSISWDENGTCIVINEELFKKEILETKAPYRIFQTDAIKSFVRQLNLYGFSKIQQNFQRSAFLATFLSEEKESSVLSKLKFYYNPNFKRGYPQLLVRVKRRIGVKNASPISTLFNEDFNKKHFRAGANMENHNSALAAEASEESLFSASKNLNMPLTRESSVRQIIANSSVPIRSGFPPPSPSTSVGPSEQIATDQHAILNQLTTIHMHSHSTYMQARGHIVNFITTTTSQYHIISPLQNGYFGLTVEPSAVPTRYPLVSVNEAPYRNMLPAGNPWLQMPTIADRSAAPHSRLALQPSPLDKYHPNYN
B9: regulator of G-protein signaling 17 (protein, UniProt Q9UGC6 1-210)
chain: MRKRQQSQNEGTPAVSQAPGNQRPNNTCCFCWCCCCSCSCLTVRNEERGENAGRPTHTTKMESIQVLEECQNPTAEEVLSWSQNFDKMMKAPAGRNLFREFLRTEYSEENLLFWLACEDLKKEQNKKVIEEKARMIYEDYISILSPKEVSLDSRVREVINRNLLDPNPHMYEDAQLQIYTLMHRDSFPRFLNSQIYKSFVESTAGSSSES
B10: sprouty homolog 2 (protein, UniProt O43597 1-315)
chain: MEARAQSGNGSQPLLQTPRDGGRQRGEPDPRDALTQQVHVLSLDQIRAIRNTNEYTEGPTVVPRPGLKPAPRPSTQHKHERLHGLPEHRQPPRLQHSQVHSSARAPLSRSISTVSSGSRSSTRTSTSSSSSEQRLLGSSFSSGPVADGIIRVQPKSELKPGELKPLSKEDLGLHAYRCEDCGKCKCKECTYPRPLPSDWICDKQCLCSAQNVIDYGTCVCCVKGLFYHCSNDDEDNCADNPCSCSQSHCCTRWSAMGVMSLFLPCLWCYLPAKGCLKLCQGCYDRVNRPGCRCKNSNTVCCKVPTVPPRNFEKPT
B11: G protein regulated inducer of neurite outgrowth 2 (protein, UniProt O60269 1-458)
chain: MSSSRPEPGPWAPLSPRLQPLSQSSSSLLGEGREQRPELRKTASSTVWQAQLGEASTRPQAPEEEGNPPESMKPARASGPKARPSAGGHWWSSTVGNVSTMGGSDLCRLRAPSAAAMQRSHSDLVRSTQMRGHSGARKASLSCSALGSSPVHRAQLQPGGTSGQGGQAPAGLERDLAPEDETSNSAWMLGASQLSVPPLDLGDTTAHSSSAQAEPKAAEQLATTTCHALPPAALLCGMREVRAGGCCHALPATGILAFPKLVASVSESGLQAQHGVKIHCRLSGGLPGHSHCCAHLWGPAGLVPEPGSRTKDVWTMTSANDLAPAEASPLSAQDAGVQAAPVAACKAVATSPSLEAPAALHVFPEVTLGSSLEEVPSPVRDVRWDAEGMTWEVYGAAVDLEVLGVAIQKHLEMQFEQLQRAPASEDSLSVEGRRGPLRAVMQSLRRPSCCGCSGAAPE

These binders were tested against VC155-Hoxa1 (mouse) (UniProt P09022) (assay: split reporter; BiFC in transfected MCF10A cells: VN173-hORF with VC155-Hoxa1; fixed 24 h after transfection, confocal microscopy).
B1 was tested, and the binding was “binds”. For B2, the binding was “binds”. For B3, the binding was “binds”. For B4, the binding was “binds”. B5 was tested, and the binding was “binds”. For B6, the binding was “binds”. With B7 the binding was “binds”.

The binders below were run against Hoxa1 (mouse) (UniProt P09022) (assay: two-hybrid; DB-Hoxa1 (Gal4 DNA binding domain) in MATα Y8930 mated with the AD-hORF library (human ORFeome v3.1) in MATa Y8800; 30°C; selection on Sc-L-T-H + 1 mM 3AT, retest on Sc-L-T-H, Sc-L-T-A and Sc-L-T-H-A+3AT).
With B8 the binding was “binds”. With B1 the binding was “binds”. For B9, the binding was “binds”. With B10 the binding was “binds”. In the case of B11, the binding is reported as “binds”.
